# No constants are given. Whether binding was seen depends on the method and setting. Binding seen in cells or lysates may run through a third protein. Some binding calls cover weakened binding; strength is not graded here.
# Chains of the proteins cited; added tags and fusions are not shown.
# UniProt P05412: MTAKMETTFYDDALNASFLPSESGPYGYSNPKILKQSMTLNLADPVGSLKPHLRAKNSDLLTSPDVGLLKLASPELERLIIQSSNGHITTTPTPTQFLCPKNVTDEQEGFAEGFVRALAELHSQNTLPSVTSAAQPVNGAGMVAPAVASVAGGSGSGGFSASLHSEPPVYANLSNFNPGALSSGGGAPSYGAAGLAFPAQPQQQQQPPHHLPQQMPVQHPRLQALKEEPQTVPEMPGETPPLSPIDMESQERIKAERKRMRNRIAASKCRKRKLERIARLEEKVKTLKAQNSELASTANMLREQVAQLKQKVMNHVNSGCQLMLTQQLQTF
# B1: endogenous FRA1 (protein, UniProt P15407 1-271)
# chain: MFRDFGEPGPSSGNGGGYGGPAQPPAAAQAAQQKFHLVPSINTMSGSQELQWMVQPHFLGPSSYPRPLTYPQYSPPQPRPGVIRALGPPPGVRRRPCEQISPEEEERRRVRRERNKLAAAKCRNRRKELTDFLQAETDKLEDEKSGLQREIEELQKQKERLELVLEAHRPICKIPEGAKEGDTGSTSGTSSPPAPCRPVPCISLSPGPVLEPEALHTPTLMTTPSLTPFTPSLVFTYPSTPEPCASAHRKSSSSSGDPSSDPLGSPTLLAL
# Molecular target: endogenous JUN (human (endogenous in MCF7)) (UniProt P05412)
# Assay: proximity ligation; in situ PLA (Duolink) on methanol-fixed MCF7 cells, endogenous proteins; DMSO or 5 μmol/L MYCMI-7 for 24 h; dots per cell counted
binder,measurement,value
B1,binding,binds
